Measured values from the supplement of paper PMC8728848.
The other results are listed elsewhere or left out.

What was measured:
Test in all cases: glycan array binding signal (z-score within array); higher = stronger binding
Conditions in all cases: glycan notation: IUPAC condensed, linker removed
[1] = target: Neu5Ac(a2-3)[GalNAc(b1-4)]Gal(b1-4)GlcNAc(b1-3)GalNAc
Procedure, shortened: (§1)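 Glycan array data came from 3228 arrays in the Consortium for Functional Glycomics database, and only arrays with an available protein sequence were kept. Glycan names were put into IUPAC-condensed notation, and columns mapping to the same glycan were averaged. The binding signal is a within-array Z-score, averaged across arrays of one protein sequence run at different concentrations or buffers and across linkers. A negative Z-score can be read as non-binding.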

[2] = target: Neu5Ac(a2-3)[Neu5Ac(a2-6)]GalNAc
Procedure, shortened: as §1

Neu5Ac(a2-6)Gal = target: Neu5Ac(a2-6)Gal
Procedure, shortened: as §1

[3] = target: Neu5Ac(a2-6)Gal(b1-3)GlcNAc(b1-3)[Gal(b1-4)GlcNAc(b1-6)]Gal(b1-4)Glc
Procedure, shortened: as §1

Neu5Ac(a2-6)Gal(b1-4)Glc = target: Neu5Ac(a2-6)Gal(b1-4)Glc
Procedure, shortened: as §1

[4] = target: Neu5Ac(a2-6)Gal(b1-4)GlcNAc
Procedure, shortened: as §1

[5] = target: Neu5Ac(a2-6)Gal(b1-4)GlcNAc(b1-2)Man(a1-3)Man(b1-4)GlcNAc(b1-4)GlcNAc
Procedure, shortened: as §1

[6] = target: Neu5Ac(a2-6)Gal(b1-4)GlcNAc(b1-2)Man(a1-3)[Gal(b1-4)GlcNAc(b1-2)Man(a1-6)]Man(b1-4)GlcNAc(b1-4)GlcNAc
Procedure, shortened: as §1

[7] = target: Neu5Ac(a2-6)Gal(b1-4)GlcNAc(b1-2)Man(a1-3)[GlcNAc(b1-2)Man(a1-6)]Man(b1-4)GlcNAc(b1-4)GlcNAc
Procedure, shortened: as §1

[8] = target: Neu5Ac(a2-6)Gal(b1-4)GlcNAc(b1-2)Man(a1-3)[GlcNAc(b1-2)Man(b1-4)GlcNAc(b1-2)Man(a1-6)]Man(b1-4)GlcNAc(b1-4)GlcNAc
Procedure, shortened: as §1

[9] = target: Neu5Ac(a2-6)Gal(b1-4)GlcNAc(b1-2)Man(a1-3)[Man(a1-6)]Man(b1-4)GlcNAc(b1-4)GlcNAc
Procedure, shortened: as §1

[10] = target: Neu5Ac(a2-6)Gal(b1-4)GlcNAc(b1-2)Man(a1-3)[Neu5Ac(a2-6)Gal(b1-4)GlcNAc(b1-2)Man(a1-6)]Man(b1-4)GlcNAc(b1-4)GlcNAc
Procedure, shortened: as §1

[11] = target: Neu5Ac(a2-6)Gal(b1-4)GlcNAc(b1-2)Man(a1-6)Man(b1-4)GlcNAc(b1-4)GlcNAc
Procedure, shortened: as §1

[12] = target: Neu5Ac(a2-6)Gal(b1-4)GlcNAc(b1-2)Man(a1-6)[Gal(b1-4)GlcNAc(b1-2)Man(a1-3)]Man(b1-4)GlcNAc(b1-4)GlcNAc
Procedure, shortened: as §1

[13] = target: Neu5Ac(a2-6)Gal(b1-4)GlcNAc(b1-2)Man(a1-6)[GlcNAc(b1-2)Man(a1-3)]Man(b1-4)GlcNAc(b1-4)GlcNAc
Procedure, shortened: as §1

[14] = target: Neu5Ac(a2-6)Gal(b1-4)GlcNAc(b1-2)Man(a1-6)[Man(a1-3)]Man(b1-4)GlcNAc(b1-4)GlcNAc
Procedure, shortened: as §1

[15] = target: Neu5Ac(a2-6)Gal(b1-4)GlcNAc(b1-3)Gal(b1-3)GlcNAc
Procedure, shortened: as §1

[16] = target: Neu5Ac(a2-6)Gal(b1-4)GlcNAc(b1-3)Gal(b1-4)GlcNAc
Procedure, shortened: as §1

[17] = target: Neu5Ac(a2-6)Gal(b1-4)GlcNAc(b1-3)Gal(b1-4)GlcNAc(b1-3)Gal(b1-4)GlcNAc
Procedure, shortened: as §1

[18] = target: Neu5Ac(a2-6)Gal(b1-4)GlcNAc(b1-3)Gal(b1-4)[Fuc(a1-3)]GlcNAc(b1-3)Gal(b1-4)[Fuc(a1-3)]GlcNAc
Procedure, shortened: as §1

[19] = target: Neu5Ac(a2-6)Gal(b1-4)GlcNAc(b1-3)GalNAc
Procedure, shortened: as §1

[20] = target: Neu5Ac(a2-6)Gal(b1-4)GlcNAc6S
Procedure, shortened: as §1

Neu5Ac(a2-6)GalNAc = target: Neu5Ac(a2-6)GalNAc
Procedure, shortened: as §1

[21] = target: Neu5Ac(a2-6)GalNAc(b1-4)GlcNAc
Procedure, shortened: as §1

[22] = target: Neu5Ac(a2-6)GlcNAc(b1-4)GlcNAc
Procedure, shortened: as §1

[23] = target: Neu5Ac(a2-6)GlcNAc(b1-4)GlcNAc(b1-4)GlcNAc
Procedure, shortened: as §1

Neu5Ac(a2-8)Neu5Ac = target: Neu5Ac(a2-8)Neu5Ac
Procedure, shortened: as §1

[24] = target: Neu5Ac(a2-8)Neu5Ac(a2-3)Gal(b1-3)GalNAc(b1-4)[Neu5Ac(a2-8)Neu5Ac(a2-3)]Gal(b1-4)Glc
Procedure, shortened: as §1

[25] = target: Neu5Ac(a2-8)Neu5Ac(a2-3)Gal(b1-4)Glc
Procedure, shortened: as §1

[26] = target: Neu5Ac(a2-8)Neu5Ac(a2-3)[Gal(b1-3)GalNAc(b1-4)]Gal(b1-4)Glc
Procedure, shortened: as §1

[27] = target: Neu5Ac(a2-8)Neu5Ac(a2-3)[GalNAc(b1-4)]Gal(b1-4)Glc
Procedure, shortened: as §1

[28] = target: Neu5Ac(a2-8)Neu5Ac(a2-8)Neu5Ac
Procedure, shortened: as §1

[29] = target: Neu5Ac(a2-8)Neu5Ac(a2-8)Neu5Ac(a2-3)Gal(b1-4)Glc
Procedure, shortened: as §1

[30] = target: Neu5Ac(a2-8)Neu5Ac(a2-8)Neu5Ac(a2-3)[GalNAc(b1-4)]Gal(b1-4)Glc
Procedure, shortened: as §1

[31] = target: Neu5Ac(a2-8)Neu5Ac(a2-8)Neu5Ac(a2-8)Neu5Ac(a2-3)[GalNAc(b1-4)]Gal(b1-4)Glc
Procedure, shortened: as §1

[32] = target: Neu5Ac(b2-6)Gal(b1-4)GlcNAc
Procedure, shortened: as §1

Neu5Ac(b2-6)GalNAc = target: Neu5Ac(b2-6)GalNAc
Procedure, shortened: as §1

[33] = target: Neu5Ac9Ac(a2-3)Gal(b1-3)GlcNAc
Procedure, shortened: as §1

B1: Layilin (Mus musculus), Q8C351 (protein)
chain: MQPGAALQAMLLAVLLAKPRDSKGRLLSASDLDPRGGQLVCRGGTRRPCYKVIYFHDAFQRLNFEEAKETCMEDGGQLVSIETEDEQRLIEKFIENLLASDGDFWIGLKRLEEKQSNNTACQDLYAWTDGSTSQFRNWYVDEPSCGSEVCVVMYHQPSAPPGIGGSYMFQWNDDRCNMKNNFICKYHDDKPSTTPSIWPGGEATEPATPLLPEETQKEDTKETFKERREAALNLAYILIPSIPLFLLLVVTSAVCWVWICRRKREQTDPSTKEQHTIWPTPRQENSPNLDVYNVIRKQSEADLAEPRPDLKNISFRVCSGEAMPDDMSCDYENIAVNPSESGFVTLASMESGFVTNDIYEFSPDRMGRSKESGWVENEIYY
glycan array binding signal (z-score) [1]: 0.49 | glycan array binding signal (z-score) [2]: -0.932 | glycan array binding signal (z-score) (Neu5Ac(a2-6)Gal): -0.444 | glycan array binding signal (z-score) [3]: -0.887 | glycan array binding signal (z-score) (Neu5Ac(a2-6)Gal(b1-4)Glc): 0.086 | glycan array binding signal (z-score) [4]: -0.655 | glycan array binding signal (z-score) [5]: -0.121 | glycan array binding signal (z-score) [6]: -0.033 | glycan array binding signal (z-score) [7]: -1.14 | glycan array binding signal (z-score) [8]: 1.47 | glycan array binding signal (z-score) [9]: 0.593 | glycan array binding signal (z-score) [10]: -0.339 | glycan array binding signal (z-score) [11]: -0.392 | glycan array binding signal (z-score) [12]: -0.426 | glycan array binding signal (z-score) [13]: -0.54 | glycan array binding signal (z-score) [14]: 0.321 | glycan array binding signal (z-score) [15]: -0.374 | glycan array binding signal (z-score) [16]: 0.558 | glycan array binding signal (z-score) [17]: -0.209 | glycan array binding signal (z-score) [18]: 0.134 | glycan array binding signal (z-score) [19]: 0.461 | glycan array binding signal (z-score) [20]: -0.397 | glycan array binding signal (z-score) (Neu5Ac(a2-6)GalNAc): -0.757 | glycan array binding signal (z-score) [21]: 0.121 | glycan array binding signal (z-score) [22]: 1.1 | glycan array binding signal (z-score) [23]: 0.077 | glycan array binding signal (z-score) (Neu5Ac(a2-8)Neu5Ac): 0.295 | glycan array binding signal (z-score) [24]: 0.192 | glycan array binding signal (z-score) [25]: 0.617 | glycan array binding signal (z-score) [26]: -0.274 | glycan array binding signal (z-score) [27]: -0.705 | glycan array binding signal (z-score) [28]: -0.704 | glycan array binding signal (z-score) [29]: -0.406 | glycan array binding signal (z-score) [30]: 0.029 | glycan array binding signal (z-score) [31]: 0.407 | glycan array binding signal (z-score) [32]: -1.32 | glycan array binding signal (z-score) (Neu5Ac(b2-6)GalNAc): -0.677 | glycan array binding signal (z-score) [33]: 0.75
